These are yes or no findings as the source states them, for the method shown. For part of these data: Binding can be weak; no strength is given.
B1: Insc (18–66) (domain or fragment, UniProt Q3HNM7 18-66)
chain: WGLWGAQESRRLCCVGPDRCGQALLQIGINMMALPGGRHLDSVPLQEQR
B2: NuMA (1847–1914) (domain or fragment, UniProt Q14980-2 1847-1914)
chain: GSPDYGNSALLSLPGYRPTTRSSARRSQAGVSSGAPPGRNSFYMGTCQDEPEQLDDWNRIAELQQRNR
B3: NuMA (1886–1912) (domain or fragment, UniProt Q14980-2 1886-1912)
chain: NSFYMGTCQDEPEQLDDWNRIAELQQR
B4: NuMA-CC (1578–1690–7(TGS)–1807–1987) (domain or fragment, UniProt Q14980-2 1578-1690; Q14980-2 1807-1987)
chain: QLNELQAQLSQKEQAAEHYKLQMEKAKTHYDAKKQQNQELQEQLRSLEQLQKENKELRAEAERLGHELQQAGLKTKEAEQTCRHLTAQVRSLEAQVAHADQQLRDLGKFQVATTGSTGSTGSTGSTGSTGSTGSKKLDVEEPDSANSSFYSTRSAPASQASLRATSSTQSLARLGSPDYGNSALLSLPGYRPTTRSSARRSQAGVSSGAPPGRNSFYMGTCQDEPEQLDDWNRIAELQQRNRVCPPHLKTCYPLESRPSLSLGTITDEEMKTGDPQETLRRASMQPIQIAEGTGITTRQQRKRVSLEPHQGPGTP

Assays:
AGS3-L (−23–405) (mouse) [1] = test: SEC; as the analytical SEC, three proteins mixed: AGS3 or LGN protein, NuMA fragment and Insc (18–66) at 1:2:2 (10, 20, 20 μM); fractions on SDS–PAGE; both purified
AGS3-TPR (1–405) (mouse) [2] = test: as above
LGN-TPR (1–409) (mouse) [3] = test: as above
AGS3-L (−23–405) (mouse) [4] = test: ITC; 25°C; 50 mM Tris (pH 8.0), NaCl raised to 300 mM for AGS3-TPR or AGS3-L, 1 mM EDTA; one protein (0.2 mM) injected into another (0.02 mM); one-site binding model; both purified
LGN-TPR (1–409) (mouse) [5] = test: ITC; 25°C; 50 mM Tris (pH 8.0), 100 mM NaCl, 1 mM EDTA; one protein (0.2 mM) injected into another (0.02 mM); one-site binding model; both purified
AGS3-TPR (1–405) (mouse) [6] = test: ITC; titration of Insc (18–66) or NuMA (1886–1912) into a 1:1 mixture of AGS3-TPR with the other partner; both purified
AGS3-L (−23–405) (mouse) [7] = test: SEC; analytical, Superose 12 10/300 GL; 50 mM Tris–HCl (pH 8.0), 100 mM NaCl, 1 mM 2-mercaptoethanol, 1 mM EDTA; AGS3 or LGN protein 10 μM, NuMA fragment in excess at 20 μM; both purified
LGN (15–350) (mouse) = test: as above
AGS3-TPR (1–405) (mouse) [8] = test: as above
LGN-TPR (1–409) (mouse) [9] = test: as above
AGS3-L (−23–405) (mouse) [10] = test: SEC; AGS3-L, LGN-TPR and NuMA (1847–1914) mixed 1:1:1; fractions on Coomassie-stained SDS–PAGE; both purified
LGN-TPR (1–409) (mouse) [11] = test: as above
AGS3-TPR (1–405) (mouse) [12] = test: condition: only AGS3-TPR premixed 1:1 with Insc (18–66); ITC; titration of Insc (18–66) or NuMA (1886–1912) into a 1:1 mixture of AGS3-TPR with the other partner; both purified

Binder	binding (AGS3-L (−23–405) (mouse) [1])	binding (AGS3-TPR (1–405) (mouse) [2])	binding (LGN-TPR (1–409) (mouse) [3])	binding (AGS3-L (−23–405) (mouse) [4])	binding (LGN-TPR (1–409) (mouse) [5])	binding (AGS3-TPR (1–405) (mouse) [6])	binding (AGS3-L (−23–405) (mouse) [7])	binding (LGN (15–350) (mouse))	binding (AGS3-TPR (1–405) (mouse) [8])	binding (LGN-TPR (1–409) (mouse) [9])	binding (AGS3-L (−23–405) (mouse) [10])	binding (LGN-TPR (1–409) (mouse) [11])	binding (AGS3-TPR (1–405) (mouse) [12])
B1	binds	binds	binds	binds	binds	binds	–	–	–	–	–	–	–
B2	binds	–	binds	–	–	–	binds	binds	binds	binds	binds	binds	–
B3	–	binds	binds	binds	binds	–	–	–	–	binds	–	–	no binding
B4	binds	–	binds	–	–	–	binds	–	–	binds	–	–	–
